Source: PubChem BioAssay AID1259425 (University of Nebraska Medical Center, 2018)
Aim: 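Compare each knockdown with KSR1 silencing using changes in marker transcripts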 (primary screen). System: HCT116 human colon cancer cells. Reagents: siRNA pool against human genes, 50 nM siRNA. Measured: 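After 50 nM siRNA pool, branched-DNA assay measures six marker transcripts per well, minus blank, normalised to the geometric mean of two housekeeping transcripts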. Direction: BNIP3L mRNA: higher = more BNIP3L transcript after knockdown.
In all, the deposit lists about 14,000 reagents; shown is an unselected part. Further read-outs or replicates are left out here. The record does not give: the time to read-out.

BNIP3L mRNA, set 1	Target gene
0.131	NT5M (GeneID 56953)
0.186	BEND5 (GeneID 79656)
0.455	ST8SIA1 (GeneID 6489)
0.163	TSC22D2 (GeneID 9819)
0.139	CNTFR (GeneID 1271)
0.188	VEGFB (GeneID 7423)
0.179	ITPA (GeneID 3704)
0.0731	ELF1 (GeneID 1997)
0.302	ARMC10 (GeneID 83787)
0.226	CERS1 (GeneID 10715)
0.0471	PANK1 (GeneID 53354)
0.123	NCR1 (GeneID 9437)
0.0403	ITK (GeneID 3702)
0.0829	ZNF286A (GeneID 57335)
0.21	TDRD7 (GeneID 23424)
0.207	TRIM5 (GeneID 85363)
0.134	TSR1 (GeneID 55720)
0.0988	ATP5PB (GeneID 515)
0.114	CSTF2T (GeneID 23283)
0.044	ST8SIA3 (GeneID 51046)
0.477	POLR1B (GeneID 84172)
0.197	SLC68A1 (GeneID 79847)
0.183	OGG1 (GeneID 4968)
0.0807	CASP6 (GeneID 839)
0.114	H2AC11 (GeneID 8969)
0.171	GGT5 (GeneID 2687)
0.0952	SNCAIP (GeneID 9627)
0.326	NPVF (GeneID 64111)
0.0762	DCUN1D1 (GeneID 54165)
0.0483	SLC7A11 (GeneID 23657)
0.103	PTPRE (GeneID 5791)
0.0716	NCAM2 (GeneID 4685)
0.133	CAPN1 (GeneID 823)
0.216	CXXC4 (GeneID 80319)
0.106	ADGRG4 (GeneID 139378)
0.14	SEPTIN3 (GeneID 55964)
0.109	PDGFD (GeneID 80310)
0.317	AMIGO1 (GeneID 57463)
0.147	AP4M1 (GeneID 9179)
0.092	KCNN2 (GeneID 3781)
0.0883	SMARCAL1 (GeneID 50485)
0.122	GATAD1 (GeneID 57798)
0.199	PMCHL2 (GeneID 5370)
0.109	PPP1R12C (GeneID 54776)
0.0965	MARCHF6 (GeneID 10299)
0.0412	PURG (GeneID 29942)
0.178	RRAGC (GeneID 64121)
0.266	CHST1 (GeneID 8534)
0.168	RPAP2 (GeneID 79871)
0.0481	DUSP7 (GeneID 1849)

In a second layout: 5 of the entries above.
BNIP3L mRNA, set 1 | Target gene
0.122 | GATAD1 (GeneID 57798)
0.199 | PMCHL2 (GeneID 5370)
0.109 | PPP1R12C (GeneID 54776)
0.0965 | MARCHF6 (GeneID 10299)
0.0412 | PURG (GeneID 29942)
